Data as given in PMC12037410, “Pharmacological targeting of BMAL1 modulates circadian and immune pathways” (Nature Chemical Biology, 2025).

Chains of the proteins cited; added tags and fusions are not shown.
UniProt O00327: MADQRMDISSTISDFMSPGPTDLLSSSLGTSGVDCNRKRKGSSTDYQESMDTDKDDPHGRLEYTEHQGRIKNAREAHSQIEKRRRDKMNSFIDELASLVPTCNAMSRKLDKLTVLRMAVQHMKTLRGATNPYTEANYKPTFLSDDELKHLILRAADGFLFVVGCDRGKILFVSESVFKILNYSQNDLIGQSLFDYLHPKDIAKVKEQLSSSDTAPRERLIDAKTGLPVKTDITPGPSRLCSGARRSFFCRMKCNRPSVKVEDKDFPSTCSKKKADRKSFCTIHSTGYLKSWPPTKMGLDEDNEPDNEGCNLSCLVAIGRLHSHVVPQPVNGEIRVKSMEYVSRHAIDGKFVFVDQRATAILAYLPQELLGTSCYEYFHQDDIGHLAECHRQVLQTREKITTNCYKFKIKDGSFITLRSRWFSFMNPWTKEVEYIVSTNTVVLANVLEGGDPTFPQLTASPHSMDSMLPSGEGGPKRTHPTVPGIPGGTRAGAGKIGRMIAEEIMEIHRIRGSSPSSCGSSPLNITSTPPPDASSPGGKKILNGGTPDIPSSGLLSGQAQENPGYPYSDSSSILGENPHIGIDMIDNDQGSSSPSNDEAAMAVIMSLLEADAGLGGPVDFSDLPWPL

Target: Endogenous BMAL1 in U2OS cells (human (endogenous in U2OS)) (UniProt O00327)
Assay: affinity purification with mass spectrometry; RIME: U2OS cells treated with 100 uM CCM or 0.1% DMSO for 3 h and cross-linked in 1% formaldehyde; nuclear fraction lysed by sonication; anti-BMAL1 antibody or rabbit IgG on Protein A Dynabeads, overnight at 4 C; RIPA washes; on-bead digestion; label-free MS

binding: binds
B1: Endogenous CLOCK in U2OS cells (protein, UniProt O15516 1-846)
chain: MLFTVSCSKMSSIVDRDDSSIFDGLVEEDDKDKAKRVSRNKSEKKRRDQFNVLIKELGSMLPGNARKMDKSTVLQKSIDFLRKHKEITAQSDASEIRQDWKPTFLSNEEFTQLMLEALDGFFLAIMTDGSIIYVSESVTSLLEHLPSDLVDQSIFNFIPEGEHSEVYKILSTHLLESDSLTPEYLKSKNQLEFCCHMLRGTIDPKEPSTYEYVKFIGNFKSLNSVSSSAHNGFEGTIQRTHRPSYEDRVCFVATVRLATPQFIKEMCTVEEPNEEFTSRHSLEWKFLFLDHRAPPIIGYLPFEVLGTSGYDYYHVDDLENLAKCHEHLMQYGKGKSCYYRFLTKGQQWIWLQTHYYITYHQWNSRPEFIVCTHTVVSYAEVRAERRRELGIEESLPETAADKSQDSGSDNRINTVSLKEALERFDHSPTPSASSRSSRKSSHTAVSDPSSTPTKIPTDTSTPPRQHLPAHEKMVQRRSSFSSQSINSQSVGSSLTQPVMSQATNLPIPQGMSQFQFSAQLGAMQHLKDQLEQRTRMIEANIHRQQEELRKIQEQLQMVHGQGLQMFLQQSNPGLNFGSVQLSSGNSSNIQQLAPINMQGQVVPTNQIQSGMNTGHIGTTQHMIQQQTLQSTSTQSQQNVLSGHSQQTSLPSQTQSTLTAPLYNTMVISQPAAGSMVQIPSSMPQNSTQSAAVTTFTQDRQIRFSQGQQLVTKLVTAPVACGAVMVPSTMLMGQVVTAYPTFATQQQQSQTLSVTQQQQQQSSQEQQLTSVQQPSQAQLTQPPQQFLQTSRLLHGNPSTQLILSAAFPLQQSTFPQSHHQQHQSQQQQQLSRHRTDSLPDPSKVQPQ

Results are given in words; binding and its absence hold for the method and conditions named. Binding seen in cells or lysates may run through a third protein. A yes stands for co-enrichment or nearness to the bait. Other partners may have been found.
